# Test results from publication PMC7819943, “Rice protein-binding microarrays: a tool to detect cis-acting elements near promoter regions in rice”.
# Chains of the proteins cited; added tags and fusions are not shown.
# UniProt Q0JBA9, entry or part of it: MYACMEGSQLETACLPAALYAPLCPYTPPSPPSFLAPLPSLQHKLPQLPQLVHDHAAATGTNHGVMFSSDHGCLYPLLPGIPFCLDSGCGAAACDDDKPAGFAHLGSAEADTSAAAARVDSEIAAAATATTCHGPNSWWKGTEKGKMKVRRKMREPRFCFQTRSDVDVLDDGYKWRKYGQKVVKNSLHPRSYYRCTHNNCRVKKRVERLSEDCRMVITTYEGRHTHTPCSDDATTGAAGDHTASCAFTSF
# Some of the results follow.
# Molecular target: OsWRKY34 (Oryza sativa, UniProt Q0JBA9 1-250)
# Experiment: protein-binding microarray (RPBM); PBS, 2% BSA, 51.3 ng/ul salmon testes DNA, 50 uM zinc acetate, 200 nM TF, 25 C, 1 h; high values mean tight binding
# Details: protein: recombinant; tags: N-terminal polyhistidine and DsRed monomer fusion (pET32a); label: CyDye5-dUTP incorporated in the synthesized complementary strand; 3' TTTTT single-stranded linker to array surface; dsDNA, one strand shown
# Method in brief: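 Using Ni–NTA, transcription factors fused N-terminally to polyhistidine and DsRed were purified after expression in E. coli BL21-CodonPlus. These were incubated at 200 nM with a blocked, double-stranded custom Agilent array for 1 h at 25 °C in a buffer containing 50 µM zinc acetate, and the array was washed. The binding signal is per-feature fluorescence intensity (arbitrary units) on an Axon 4000B scanner.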
row,Sequence,binding signal
1,TAATATTAGCTAAATTTGTATCGTCTTATATCCTATTTTTCGGAGTCACCTAGTGCAG,8160 fluorescence intensity (a.u.)
2,TGCTGCTTTTGCTGGATCAAGCATCATGAGTGAATAGTCCCGGAGTCACCTAGTGCAG,9220 fluorescence intensity (a.u.)
3,CTCCGCCGTCGCGTCCCCGCCGCCGCCGCCCGCCTTCCCCCGGAGTCACCTAGTGCAG,9960 fluorescence intensity (a.u.)
4,CTCGTCGGCCTCAACCACCTTCTTGGGATCTGCGCAACACCGGAGTCACCTAGTGCAG,9800 fluorescence intensity (a.u.)
5,AATCAGGGAAATTTCTTTTTCGTGCGGTTTGAGTTTCGACCGGAGTCACCTAGTGCAG,8220 fluorescence intensity (a.u.)
6,TGTACTGGCTTTTCACTCAGCTGCACTACTACTATCTACACGGAGTCACCTAGTGCAG,8420 fluorescence intensity (a.u.)
7,AAGCTTAATTAGGTGGTTTTTGATCTGATCACGCGCCATGCGGAGTCACCTAGTGCAG,8080 fluorescence intensity (a.u.)
8,CCCACCTCGCCCCGTCGACGCCCGCGCCACCCACGACGCACGGAGTCACCTAGTGCAG,8130 fluorescence intensity (a.u.)
9,TTAATACTTTAAATGTGTGTCCGTATATCCGATGTAATACCGGAGTCACCTAGTGCAG,8050 fluorescence intensity (a.u.)
10,GGATGGTTGGGGTAACCTTTTCTTTTACTACAAGGGTAGACGGAGTCACCTAGTGCAG,9410 fluorescence intensity (a.u.)
11,CCGCAAACCCACTCCGATCGCAAATACTCTCTCTCGCCGACGGAGTCACCTAGTGCAG,9170 fluorescence intensity (a.u.)
12,TTGCGCCAAGACGAGTCGCGGGTGAACAGGGGAGGGGACGCGGAGTCACCTAGTGCAG,8390 fluorescence intensity (a.u.)
13,CGTTGCATATCGTGTCCGTTTTCTTTGTTCTTTACCTGCTCGGAGTCACCTAGTGCAG,12100 fluorescence intensity (a.u.)
14,ATATCATATCAGCTGGACGATATCGCTAACGTTATCCTTACGGAGTCACCTAGTGCAG,8860 fluorescence intensity (a.u.)
15,TTAACTCGACAGTTTGTGTGTGATTTCAGTACTACCACGACGGAGTCACCTAGTGCAG,10400 fluorescence intensity (a.u.)
16,GCCAACACCGCTACACCCAGCGCAAAACCTCGCATTCCTGCGGAGTCACCTAGTGCAG,8790 fluorescence intensity (a.u.)
17,TATGGCACGGTTTATTTTCCTTTCATTTCTACAGGCAGATCGGAGTCACCTAGTGCAG,8910 fluorescence intensity (a.u.)
18,CTTTGTCTATATAGGAGTATTATTTATGTGCTATAACCTTCGGAGTCACCTAGTGCAG,8600 fluorescence intensity (a.u.)
19,GCCTGAGCTGCTTGTTTCAACCGAGATAATTACGTTGACTCGGAGTCACCTAGTGCAG,9500 fluorescence intensity (a.u.)
20,ATCCGATCCGCTTTCATCCCTAGACTGCATGGCGCGGTTCCGGAGTCACCTAGTGCAG,8110 fluorescence intensity (a.u.)
21,CCATTTCATATTGTAAGACTTTTTAGCATTGCCTATATTTCGGAGTCACCTAGTGCAG,11600 fluorescence intensity (a.u.)
22,GTGGTGGTCTTGGCCATGGAGGCGGCATTGGAGGCGGGTTCGGAGTCACCTAGTGCAG,8410 fluorescence intensity (a.u.)
23,GATCCTATCCCAGTTCTTTAATGAATATTTTTAGCTATCGCGGAGTCACCTAGTGCAG,8500 fluorescence intensity (a.u.)
24,GTTTTTATCTCTCCTGCAATTCTATATGTGCTGTACACCACGGAGTCACCTAGTGCAG,8450 fluorescence intensity (a.u.)
25,TCATGTGTTTTTTTTATATTTGTTCATTTTATTAATCATGCGGAGTCACCTAGTGCAG,9890 fluorescence intensity (a.u.)
26,GACTACGGCGCGCGGGCGGGCGGGAGGGCGGACGCGGCGGCGGAGTCACCTAGTGCAG,11800 fluorescence intensity (a.u.)
27,GATCTAAGCCACGTTTCCACTTCCATCCCGCGGCGCCGCCCGGAGTCACCTAGTGCAG,14300 fluorescence intensity (a.u.)

# Shown tab-delimited: entries from further up
row	Sequence	binding signal
9	TTAATACTTTAAATGTGTGTCCGTATATCCGATGTAATACCGGAGTCACCTAGTGCAG	8050 fluorescence intensity (a.u.)
10	GGATGGTTGGGGTAACCTTTTCTTTTACTACAAGGGTAGACGGAGTCACCTAGTGCAG	9410 fluorescence intensity (a.u.)
11	CCGCAAACCCACTCCGATCGCAAATACTCTCTCTCGCCGACGGAGTCACCTAGTGCAG	9170 fluorescence intensity (a.u.)
12	TTGCGCCAAGACGAGTCGCGGGTGAACAGGGGAGGGGACGCGGAGTCACCTAGTGCAG	8390 fluorescence intensity (a.u.)

# (listing goes on)

row,Sequence,binding signal
1,GTTTCTATCCGTTCTGATTTGTTGTATTGGAAAAATAATTCGGAGTCACCTAGTGCAG,8160 fluorescence intensity (a.u.)
2,TCACTACTGTTGATGTGCTTATTTTATGTTCCACCTGGTGCGGAGTCACCTAGTGCAG,10000 fluorescence intensity (a.u.)
3,CGGGGTGTAGTCGTCCTGCATTTTGGGTTTTGCAAACCTCCGGAGTCACCTAGTGCAG,11800 fluorescence intensity (a.u.)
4,CGTCTCGTCTGCGCTCCTTCGCCTGCGCCGATCTCCATCTCGGAGTCACCTAGTGCAG,9280 fluorescence intensity (a.u.)
5,TAAGACGTTTTGACTTTGGTCAAACTGTTTGGTCAAAGTCCGGAGTCACCTAGTGCAG,10600 fluorescence intensity (a.u.)
6,GTGCTCTCTAGTTTTATACTCCATCTCGCTCGCTCACTCACGGAGTCACCTAGTGCAG,12600 fluorescence intensity (a.u.)
7,AGTCATTGTTTTAGGATGTGTCACATCCACCCAAAATCACCGGAGTCACCTAGTGCAG,9770 fluorescence intensity (a.u.)
8,ACGCTGTTGTAATTCCAGATGTTGGTCAGTAGTCATTACTCGGAGTCACCTAGTGCAG,10700 fluorescence intensity (a.u.)
9,ATACTGATCTTTGCATTCTCATACCCCATACACCACAAAACGGAGTCACCTAGTGCAG,8900 fluorescence intensity (a.u.)
10,CCATCCATCCTGTTTTCCCACATGGTATCAGAGCGCTGAACGGAGTCACCTAGTGCAG,9540 fluorescence intensity (a.u.)
11,GTCGCGCTCGGCCTTTCTGCTTTCGCTTTCACAGTTTCACCGGAGTCACCTAGTGCAG,12000 fluorescence intensity (a.u.)
12,AAAATCTAGCGTTCCTTTGCTACTCCGTAGTTTCCGTCGACGGAGTCACCTAGTGCAG,8810 fluorescence intensity (a.u.)
13,CCACTGCATACCAACACCAACCACTGTACTAGCACTACTACGGAGTCACCTAGTGCAG,8980 fluorescence intensity (a.u.)
14,TTGTTGATTTTTTTTCAGAATTTTTATCACTATTTGTCTTCGGAGTCACCTAGTGCAG,8570 fluorescence intensity (a.u.)
15,ATTCTGCTATAGCCCTTTGTTTCAATCTGTTATTCTTGTGCGGAGTCACCTAGTGCAG,8300 fluorescence intensity (a.u.)
16,GCTAAGTGAAGGCTTATTGTTGCTGATGGTCAGGCTTGTTCGGAGTCACCTAGTGCAG,8720 fluorescence intensity (a.u.)
17,GATGAGTCGCTCCAGCCACATGTGAACCCGGCCGGCCGGCCGGAGTCACCTAGTGCAG,9980 fluorescence intensity (a.u.)
18,TCAACATTTTGCTTGTTTTTTTTAGTCTGGTCCCATCTGTCGGAGTCACCTAGTGCAG,10000 fluorescence intensity (a.u.)
19,TCCGCGCTATTCTCCGTCCTGACGACTAGCCACCGTCTTCCGGAGTCACCTAGTGCAG,9390 fluorescence intensity (a.u.)
20,GTTTTATGACACTTCTAGTTATATATTTTCTATTTTTTTACGGAGTCACCTAGTGCAG,9540 fluorescence intensity (a.u.)
21,TTCTGGTTCTAGTTCATTTTCTGGATTCTACAACTACATACGGAGTCACCTAGTGCAG,9620 fluorescence intensity (a.u.)
22,TTTTAATAGCATCATATCCGTCCGTTCTATCCTACGCATACGGAGTCACCTAGTGCAG,12600 fluorescence intensity (a.u.)
23,GCCCATATTGATGTATTCATTACCAGAAACTGTGTATCGGCGGAGTCACCTAGTGCAG,8750 fluorescence intensity (a.u.)
24,ACTGGAAAATTTGGTCCACCTGTCTCGTCAACAGATTTCACGGAGTCACCTAGTGCAG,8770 fluorescence intensity (a.u.)
25,AACTTTGATTATATCATGTTTATTTCCAGTGGTTGTGTTACGGAGTCACCTAGTGCAG,10200 fluorescence intensity (a.u.)
26,CTAGAATATCAGCTGTTGATGGTACCTTTTTTATTTCAATCGGAGTCACCTAGTGCAG,11300 fluorescence intensity (a.u.)
27,GATAATAAGCCAAATCTCACCGACATGTATCACCCAAAATCGGAGTCACCTAGTGCAG,8280 fluorescence intensity (a.u.)
